In article PMC7618248, “VEL-dependent polymerization maintains the chromatin association of Polycomb proteins for the switch to epigenetic silencing” (Molecular cell, 2025):
Results are given in words; binding and its absence hold for the method and conditions named. Binding seen in cells or lysates may run through a third protein.

Chains of the proteins cited; added tags and fusions are not shown. Lines headed by an entry give the natural chain unless they say otherwise; changes in a name come on top.
UniProt Q9FIE3: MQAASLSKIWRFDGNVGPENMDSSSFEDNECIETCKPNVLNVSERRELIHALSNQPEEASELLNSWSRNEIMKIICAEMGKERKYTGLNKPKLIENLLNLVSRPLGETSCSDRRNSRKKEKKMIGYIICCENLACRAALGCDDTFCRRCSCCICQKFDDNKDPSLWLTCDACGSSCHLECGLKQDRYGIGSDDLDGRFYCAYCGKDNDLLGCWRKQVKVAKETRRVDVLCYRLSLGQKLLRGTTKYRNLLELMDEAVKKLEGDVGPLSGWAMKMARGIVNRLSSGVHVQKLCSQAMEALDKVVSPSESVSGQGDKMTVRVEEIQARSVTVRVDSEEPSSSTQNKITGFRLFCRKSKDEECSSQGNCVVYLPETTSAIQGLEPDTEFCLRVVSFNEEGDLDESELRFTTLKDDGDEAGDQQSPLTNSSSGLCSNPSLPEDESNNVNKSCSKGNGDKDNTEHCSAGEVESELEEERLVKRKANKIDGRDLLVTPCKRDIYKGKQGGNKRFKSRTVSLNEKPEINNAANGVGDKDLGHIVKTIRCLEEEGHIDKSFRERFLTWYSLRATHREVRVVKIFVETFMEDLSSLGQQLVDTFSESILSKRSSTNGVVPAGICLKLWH

Target: VIN3-GFP R556D/I575D (Arabidopsis thaliana) (UniProt Q9FIE3)
Assay: co-IP; GFP-Trap immunoprecipitates from extracts of vernalized plants with VIN3-GFP transgenes, immunoblot probed with anti-FIE; IP buffer 50 mM Tris-HCl pH 7.5, 150 mM NaCl, 0.5% NP-40, 1% Triton-X; non-transgenic Col-FRI as negative control

binding: no binding
B1: FIE (protein, UniProt Q9LT47 1-369)
chain: MSKITLGNESIVGSLTPSNKKSYKVTNRIQEGKKPLYAVVFNFLDARFFDVFVTAGGNRITLYNCLGDGAISALQSYADEDKEESFYTVSWACGVNGNPYVAAGGVKGIIRVIDVNSETIHKSLVGHGDSVNEIRTQPLKPQLVITASKDESVRLWNVETGICILIFAGAGGHRYEVLSVDFHPSDIYRFASCGMDTTIKIWSMKEFWTYVEKSFTWTDDPSKFPTKFVQFPVFTASIHTNYVDCNRWFGDFILSKSVDNEILLWEPQLKENSPGEGASDVLLRYPVPMCDIWFIKFSCDLHLSSVAIGNQEGKVYVWDLKSCPPVLITKLSHNQSKSVIRQTAMSVDGSTILACCEDGTIWRWDVITK
